Source: PMC4893672
Results are given in words; binding and its absence hold for the method and conditions named. Binding seen in cells or lysates may run through a third protein.

Chains of the proteins cited; added tags and fusions are not shown.
UniProt Q99836: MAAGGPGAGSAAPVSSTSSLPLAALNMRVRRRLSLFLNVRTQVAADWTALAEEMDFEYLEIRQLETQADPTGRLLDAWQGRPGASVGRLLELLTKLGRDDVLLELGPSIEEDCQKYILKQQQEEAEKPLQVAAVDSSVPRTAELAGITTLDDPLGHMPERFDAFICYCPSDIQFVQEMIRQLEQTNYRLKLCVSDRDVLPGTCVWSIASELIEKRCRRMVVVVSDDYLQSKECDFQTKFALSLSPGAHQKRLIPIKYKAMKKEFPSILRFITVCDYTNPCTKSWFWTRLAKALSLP
UniProt P27448: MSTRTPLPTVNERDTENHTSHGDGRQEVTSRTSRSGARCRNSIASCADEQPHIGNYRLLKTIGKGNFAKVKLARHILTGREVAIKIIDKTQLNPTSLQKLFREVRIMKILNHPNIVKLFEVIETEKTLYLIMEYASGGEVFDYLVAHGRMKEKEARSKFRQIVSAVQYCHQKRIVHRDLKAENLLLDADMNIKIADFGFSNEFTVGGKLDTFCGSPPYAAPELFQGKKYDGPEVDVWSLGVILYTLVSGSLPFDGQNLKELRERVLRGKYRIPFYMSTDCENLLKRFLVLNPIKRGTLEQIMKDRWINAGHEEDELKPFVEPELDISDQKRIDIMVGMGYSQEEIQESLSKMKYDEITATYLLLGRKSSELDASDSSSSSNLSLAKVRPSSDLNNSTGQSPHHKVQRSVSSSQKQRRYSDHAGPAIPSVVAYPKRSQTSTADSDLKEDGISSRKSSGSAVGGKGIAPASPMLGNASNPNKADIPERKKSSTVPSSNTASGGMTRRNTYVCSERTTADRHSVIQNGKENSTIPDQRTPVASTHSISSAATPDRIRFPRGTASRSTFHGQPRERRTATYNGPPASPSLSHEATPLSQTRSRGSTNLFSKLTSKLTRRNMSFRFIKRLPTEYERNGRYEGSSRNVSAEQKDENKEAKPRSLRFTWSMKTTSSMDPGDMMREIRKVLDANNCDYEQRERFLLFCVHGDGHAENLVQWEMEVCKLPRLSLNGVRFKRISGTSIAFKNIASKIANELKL

Key:
FLAG-PQS1-Ras (human) = FLAG-PQS1-Ras (human) (UniProt P01112); test: co-IP; HEK293T cells transfected with pairs of FLAG-PQS1- and Myc-PQS2-tagged proteins; anti-FLAG or anti-Myc antibody coupled to magnetic beads; on-bead tryptic digestion; PQS1 and PQS2 peptides quantified by SRM against heavy labeled peptides
FLAG-PQS1-MyD88 (human) = FLAG-PQS1-MyD88 (human) (UniProt Q99836); test: as above

binding (FLAG-PQS1-Ras (human))	binding (FLAG-PQS1-MyD88 (human))	Substance
no binding	–	Myc-PQS2-Mal (from UniProt P58753 1-221)
–	no binding	Myc-PQS2-MARK3 (from UniProt P27448 1-753)
